The campaign covered roughly 340,000 compounds. About 4,500 (1.3%) were called active. The inconclusive results got no clear call from the source; some entries with a clear call stand among them for comparison. The call rests on the fitted dose curve; in most records, active means well fitted inhibition curve with a large enough effect; inconclusive means small, poorly fitted or top-dose-only effect, or another doubt; inactive means no such curve, though single readings can be large or run the other way. A potency beside an inconclusive call is a rough fit, not a confirmed value.
target: DNA polymerase beta (Homo sapiens) (UniProt P06746); test: qHTS Assay for Inhibitors of DNA Polymerase Beta; details: Pol beta primer extension/strand displacement, fluorescence kinetic; activity change, negative = inhibition: at 114 µM (top of the series)
Outline: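 Enzyme-only controls used 10 nM Pol beta; buffer lacking enzyme served as negative control. Compound preincubated 15 min, then 50 nM substrate added; 0 and 10 min reads at room temperature.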
On the % scale 0 is the no-effect control and ±100 the full control effect; potency means the concentration at half of the fitted maximal effect.

With CCOc1cc(/C=N/Nc2nncc(-c3ccccc3)n2)ccc1O as the compound, how does the Potency read?
The Potency was inconclusive: 5.01 µM [inhibitor, single point].

CCOC(=O)c1cnc(SCC(=O)Nc2cc(OC)ccc2OC)nc1N was tested. Which Potency did it give?
The Potency was active: 22.4 µM.

How did the Potency turn out when CN=C1S/C(=C\c2ccc(O)c(Br)c2)C(=O)N1C was run?
The Potency was “inactive”.

Which Potency does the source give for COc1ccc(/C=C2\Sc3ccc(C(=O)NCCN4CCCCCC4)cc3N(C)C2=O)cc1 here?
Its Potency is inconclusive: 89.1 µM [inhibitor, partial curve, poor fit].

With CCOC(=O)CSc1ccc2nnc(-c3cccnc3)n2n1 as the compound, how does the Potency read?
Its Potency is inconclusive: 89.1 µM [inhibitor, single point].

For COc1cc(/C=N/NC(=O)c2ccc3nc[nH]c3c2)cc(OC)c1OC, which Potency is on record?
Its Potency is active: 7.08 µM.

CC(=O)Nc1ccc(NC(=O)C2CCCN2S(=O)(=O)c2cccc(C(F)(F)F)c2)cc1 (stereo not drawn) was tested. Which Potency did it give?
Its Potency is inconclusive: 0.501 µM [inhibitor, full curve, poor fit].

Which Potency does the source give for O=C(Nc1ccc(Cl)c([N+](=O)[O-])c1)c1cnccn1 here?
The Potency was active: 39.8 µM.

How did the Potency turn out when COc1ccc(OC)c(/C=N/NC(=O)c2ccc(=O)[nH]n2)c1 was run?
The Potency was inconclusive: 7.94 µM [inhibitor, full curve, poor fit].

How did the Potency turn out when Cc1cc(C)nc(NC(=O)Cc2cccs2)n1 was run?
The Potency was inconclusive: 89.1 µM [inhibitor, partial curve].

How did the Potency turn out when Clc1ccccc1CN1CCN(/N=C/C=C/c2ccco2)CC1 was run?
Its Potency is inconclusive: 50.1 µM [inhibitor, partial curve, poor fit].

How did the Potency turn out when COc1ccc(N(CC(=O)NCCSCc2ccco2)S(=O)(=O)c2ccccc2)cc1Cl was run?
The Potency was inconclusive: 79.4 µM [inhibitor, single point].

With Cc1ccc(C2C(C#N)=C(N)Oc3n[nH]c(-c4ccccc4)c32)o1 (stereo not drawn) as the compound, how does the Potency read?
Its Potency is “inactive”.

How did the Potency turn out when COc1ccc(CCn2c(=N)c(C(=O)NCc3ccco3)cc3c(=O)n4cccc(C)c4nc32)cc1 was run?
The Potency was inconclusive: 20 µM [inhibitor, full curve].

For CCc1nnc(NC(=O)CSc2nnc(-c3ccccc3O)n2-c2ccc(C)cc2)s1, which Potency is on record?
Its Potency is inconclusive: 17.8 µM [inhibitor, full curve].

How did the Potency turn out when Cc1ccc(-n2cnc3cc(C(=O)NC4CCCCCC4)ccc32)cc1Cl was run?
Its Potency is inconclusive: 28.2 µM [inhibitor, single point].

How did the Potency turn out when O=C(O)CN1c2cccc3cccc(c23)S1(=O)=O was run?
The Potency was inconclusive: 25.1 µM [inhibitor, partial curve].

With COc1ccc2nc(C)cc(SCC(=O)NNC(=O)COc3cccc4ccccc34)c2c1 as the compound, how does the Potency read?
Its Potency is active: 12.6 µM.

For O=C(O)CSc1nnc(COc2cccc3cccnc23)n1-c1cccc(C(F)(F)F)c1, which Potency is on record?
Its Potency is “inactive”.

For CCOC(=O)c1cnc2c(c(C)nn2C)c1Oc1ccccc1F, which Potency is on record?
Its Potency is inconclusive: 79.4 µM [inhibitor, single point].

How did the Potency turn out when COC(=O)c1c(C)sc(-c2c(-c3ccc4c(c3)OCCO4)[nH]c3c2c(=O)[nH]c(=O)n3C)c1O was run?
The Potency was “inactive”.

How did the Potency turn out when O=C(CSc1nnc(-c2ccccc2)o1)N1CCCCC1 was run?
Its Potency is inconclusive: 89.1 µM [inhibitor, single point].

With CCOc1ccc(S(=O)(=O)NCC(c2cccs2)S(=O)(=O)c2ccc(C)cc2)cc1 (stereo not drawn) as the compound, how does the Potency read?
Its Potency is inconclusive: 56.2 µM [inhibitor, partial curve].

How did the Potency turn out when CCOC(=O)c1c(-c2ccc(-c3ccccc3)cc2)csc1NC(=O)CCC(=O)O was run?
The Potency was inconclusive: 100 µM [inhibitor, single point].

Which Potency does the source give for Cc1ccc(-c2csc(NC(=O)c3cccc([N+](=O)[O-])c3)n2)cc1 here?
Its Potency is inconclusive: 0.1 µM [inhibitor, full curve, poor fit].

How did the Potency turn out when Cc1oc(-c2ccc(Cl)cc2)cc1-c1nn2c(-c3ccoc3C)nnc2s1 was run?
Its Potency is active: 3.55 µM.

For O=C(O)c1ccc(N/N=C/c2ccc(-c3ccc(Cl)cc3Cl)o2)cc1, which Potency is on record?
The Potency was inconclusive: 89.1 µM [inhibitor, single point].

For CC(C)c1nnc(NC(=O)C2c3ccccc3Oc3ccccc32)s1, which Potency is on record?
Its Potency is inconclusive: 0.794 µM [inhibitor, full curve].

How did the Potency turn out when CCC(=O)Nc1cccc(C(=O)/C=C/c2cc(Br)ccc2OC)c1 was run?
The Potency was “inactive”.

Which Potency does the source give for CC(=O)Nc1cccc(NS(=O)(=O)c2cn(C)c(=O)n(C)c2=O)c1 here?
Its Potency is inconclusive: 0.141 µM [inhibitor, full curve, poor fit].

For COc1ccccc1CN1CCNC(=O)C1CC(=O)N(C)Cc1ccon1 (stereo not drawn), which Potency is on record?
The Potency was “inactive”.

Which activity change, negative = inhibition does the source give for O=C(N/N=C/c1ccc2nccnc2c1)c1ccc(Br)cc1 here?
The activity change, negative = inhibition was inconclusive: -65.9% [inhibitor].

For N/C(=N/OC(=O)c1ccccc1Cl)c1ncc([N+](=O)[O-])s1, which Potency is on record?
Its Potency is inconclusive: 89.1 µM [inhibitor, single point].

With CCCC(NC(=O)COc1cc2c(c3oc(=O)cc(C)c13)CCC(C)(C)O2)C(=O)O (stereo not drawn) as the compound, how does the Potency read?
Its Potency is inconclusive: 89.1 µM [inhibitor, single point].

Which Potency does the source give for Cc1ccc2c(c1)C(O)(C1COC(C)(C)CC1=O)C(=O)N2C (stereo not drawn) here?
Its Potency is inconclusive: 39.8 µM [inhibitor, partial curve].

Which activity change, negative = inhibition does the source give for COc1ccc(CCNC(=O)c2cc3c(=O)n4cccc(C)c4nc3n(Cc3ccco3)c2=N)cc1OC here?
Its activity change, negative = inhibition is inconclusive: -96.7% [inhibitor].

CCOC(=O)c1cccc(NC(=O)c2nn(-c3ccc(OC)cc3)c(=O)c3c2c2ccccc2n3C)c1 was tested. Which Potency did it give?
Its Potency is “inactive”.

Which Potency does the source give for CN(C)c1ccc(CNC(=O)c2cccn2-c2nnc(N3CCCCC3)s2)cc1 here?
The Potency was “inactive”.

With O=C(Cc1ccccc1)Nc1ccc(NC(=O)c2ccccc2)nc1 as the compound, how does the Potency read?
Its Potency is active: 63.1 µM.

C/C(=N\NC(=O)c1cccc([N+](=O)[O-])c1)c1ccco1 was tested. Which Potency did it give?
Its Potency is “inactive”.

CCOc1ccc(CNC(=O)CCC(=O)n2ncc3ccc(Cl)cc32)cc1 was tested. Which Potency did it give?
The Potency was inconclusive: 89.1 µM [inhibitor, single point].

Cc1ccc(C)c(C(C)NC(=S)NCc2ccc(F)cc2)c1 (stereo not drawn) was tested. Which Potency did it give?
Its Potency is inconclusive: 22.4 µM [inhibitor, full curve, poor fit].

With O=C1C2C(C(=O)N1/N=C/c1cc([N+](=O)[O-])ccc1O)C1C=CC2C12CC2 (stereo not drawn) as the compound, how does the Potency read?
The Potency was “inactive”.

How did the Potency turn out when Cc1ccc(-c2cc(C(=O)Nc3ccc(S(=O)(=O)Nc4onc(C)c4C)cc3)c3ccccc3n2)cc1 was run?
The Potency was inconclusive: 89.1 µM [inhibitor, single point].

O=S(=O)(NCCc1nnc2ccc(SCc3c(F)cccc3Cl)nn12)c1ccccc1 was tested. Which Potency did it give?
The Potency was “inactive”.

How did the Potency turn out when CCCc1nc2n[nH]c(N)c2c2c1CCCC2 was run?
The Potency was inconclusive: 100 µM [inhibitor, partial curve].

COc1cccc(C2CC(c3ccccc3OC)n3ncnc3N2)c1 (stereo not drawn) was tested. Which Potency did it give?
The Potency was inconclusive: 0.631 µM [inhibitor, full curve, poor fit].

O=C(Nc1cc(S(=O)(=O)N2CCOCC2)ccc1N1CCCC1)c1ccc2c(c1)S(=O)(=O)c1ccccc1C2=O was tested. Which Potency did it give?
The Potency was “inactive”.

How did the Potency turn out when O=C(c1ccco1)N1CCN(C(=O)c2cc(-c3ccccn3)nc3ccc(Cl)cc23)CC1 was run?
The Potency was inconclusive: 25.1 µM [inhibitor, full curve, poor fit].

How did the Potency turn out when Cc1cc[n+](-c2[nH]c(=O)sc2/C=N/N=C(\[O-])CCn2c3ccccc3c3ccccc32)cc1 was run?
The Potency was inconclusive: 39.8 µM [inhibitor, partial curve].

O=S(=O)(c1ccccc1)c1nnn2c1nc(NC1CCN(Cc3ccccc3)CC1)c1ccccc12 was tested. Which activity change, negative = inhibition did it give?
The activity change, negative = inhibition was inconclusive: -33.5% [inhibitor].

CCc1nnc(NC(=O)C2CC(=O)N(Cc3ccco3)C2)s1 (stereo not drawn) was tested. Which Potency did it give?
The Potency was inconclusive: 100 µM [inhibitor, single point].

With Clc1ccccc1C1Nc2cccc3cccc(c23)N1 as the compound, how does the Potency read?
The Potency was inconclusive: 89.1 µM [inhibitor, single point].

For CC(=O)Nc1ccc(SCc2csc(C)n2)cc1, which Potency is on record?
Its Potency is “inactive”.

Which Potency does the source give for COc1cc(OC)cc(C(=O)NCC2CCCN(Cc3ccc(SC)cc3)C2)c1 (stereo not drawn) here?
The Potency was inconclusive: 39.8 µM [inhibitor, single point].

For O=C(CN1CCN(CC(=O)Nc2ccccc2F)CC1)Nc1ccc(Cl)c(C(F)(F)F)c1, which Potency is on record?
Its Potency is “inactive”.

With O=C1c2cccc3c([N+](=O)[O-])ccc(c23)C(=O)N1c1nccs1 as the compound, how does the Potency read?
Its Potency is inconclusive: 0.141 µM [inhibitor, full curve, poor fit].

For CC(C)Cc1nc(NCCN2CCOCC2)c(C#N)c2c1COC(C)(C)C2, which Potency is on record?
Its Potency is inconclusive: 89.1 µM [inhibitor, single point].

Cc1cccc(C)c1N=C1C(=O)Nc2ccccc21 was tested. Which Potency did it give?
Its Potency is inconclusive: 4.47 µM [inhibitor, full curve, poor fit].

For CCNc1ccccc(C(=O)/C=C/c2ccc3c(c2)OCO3)c1=O, which Potency is on record?
Its Potency is active: 56.2 µM.

For CCOC(=O)C1C(c2ccc(O)cc2)NC(=O)NC1(O)C(F)(F)F (stereo not drawn), which Potency is on record?
Its Potency is inconclusive: 39.8 µM [inhibitor, single point].

With COc1ccc(Cc2nnc(NC(=O)Cc3cccs3)s2)cc1OC as the compound, how does the Potency read?
The Potency was active: 8.91 µM.

Which Potency does the source give for CCn1cc(/C=N/NC(=O)COc2cccc3cccnc23)c2ccccc21 here?
Its Potency is active: 12.6 µM.

CC1=C(c2ccc(C)c(C)c2)S(=O)(=O)N=C1N1CCC(C(=O)N2CCCCC2)CC1 was tested. Which Potency did it give?
Its Potency is “inactive”.

Which Potency does the source give for CC(=O)n1cc([C@H]2C=C(C(=O)N3CCN(Cc4ccccc4)CC3)O[C@@H](OCc3ccc(CO)cc3)C2)c2ccccc21 here?
The Potency was inconclusive: 89.1 µM [inhibitor, single point].

How did the Potency turn out when O=C(O)COc1cccc(/C=C2/SC(=S)N(Cc3ccccc3)C2=O)c1 was run?
The Potency was inconclusive: 79.4 µM [inhibitor, single point].

For CCCOc1ccccc1-c1nc2n[nH]nc2c(=O)[nH]1, which Potency is on record?
The Potency was “inactive”.

CCOC(=O)N1CCC(=C(C#N)C(=O)Nc2cc(OC)ccc2OC)CC1 was tested. Which Potency did it give?
The Potency was inconclusive: 35.5 µM [inhibitor, single point].

Source: PubChem BioAssay AID485314 (National Center for Advancing Translational Sciences (NCATS), 2010)
